The supplement of paper PMC10849652
The other results are listed elsewhere or left out.

Sequences of proteins named here, by UniProt entry; tags and fusion partners are left off. A change or cut given only in a name is not applied to a line headed by its entry.
UniProt Q96J02: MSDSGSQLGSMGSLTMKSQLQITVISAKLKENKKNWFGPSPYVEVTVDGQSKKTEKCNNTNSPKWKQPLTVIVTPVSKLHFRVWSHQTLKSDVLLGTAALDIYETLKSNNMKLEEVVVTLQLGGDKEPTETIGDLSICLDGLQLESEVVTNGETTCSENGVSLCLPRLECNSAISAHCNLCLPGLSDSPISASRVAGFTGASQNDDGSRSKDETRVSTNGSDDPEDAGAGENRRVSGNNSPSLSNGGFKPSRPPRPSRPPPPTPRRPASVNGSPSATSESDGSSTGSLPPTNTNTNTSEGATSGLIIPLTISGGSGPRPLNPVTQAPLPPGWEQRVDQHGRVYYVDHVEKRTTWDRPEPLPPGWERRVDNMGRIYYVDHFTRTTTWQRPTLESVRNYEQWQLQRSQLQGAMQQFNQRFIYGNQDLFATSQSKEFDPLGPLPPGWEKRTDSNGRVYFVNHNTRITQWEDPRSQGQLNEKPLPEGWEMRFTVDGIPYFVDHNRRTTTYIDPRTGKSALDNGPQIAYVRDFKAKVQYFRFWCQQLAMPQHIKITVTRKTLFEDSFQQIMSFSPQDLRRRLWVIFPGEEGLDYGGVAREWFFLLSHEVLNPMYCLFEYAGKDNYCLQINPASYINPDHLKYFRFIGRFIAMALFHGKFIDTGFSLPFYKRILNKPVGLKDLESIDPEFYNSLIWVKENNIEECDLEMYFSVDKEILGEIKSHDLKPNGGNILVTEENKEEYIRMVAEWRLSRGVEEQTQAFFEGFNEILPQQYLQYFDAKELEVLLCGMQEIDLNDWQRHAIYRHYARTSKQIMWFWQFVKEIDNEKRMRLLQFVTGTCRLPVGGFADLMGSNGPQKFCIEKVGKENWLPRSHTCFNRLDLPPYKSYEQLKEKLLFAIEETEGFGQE
UniProt P28290: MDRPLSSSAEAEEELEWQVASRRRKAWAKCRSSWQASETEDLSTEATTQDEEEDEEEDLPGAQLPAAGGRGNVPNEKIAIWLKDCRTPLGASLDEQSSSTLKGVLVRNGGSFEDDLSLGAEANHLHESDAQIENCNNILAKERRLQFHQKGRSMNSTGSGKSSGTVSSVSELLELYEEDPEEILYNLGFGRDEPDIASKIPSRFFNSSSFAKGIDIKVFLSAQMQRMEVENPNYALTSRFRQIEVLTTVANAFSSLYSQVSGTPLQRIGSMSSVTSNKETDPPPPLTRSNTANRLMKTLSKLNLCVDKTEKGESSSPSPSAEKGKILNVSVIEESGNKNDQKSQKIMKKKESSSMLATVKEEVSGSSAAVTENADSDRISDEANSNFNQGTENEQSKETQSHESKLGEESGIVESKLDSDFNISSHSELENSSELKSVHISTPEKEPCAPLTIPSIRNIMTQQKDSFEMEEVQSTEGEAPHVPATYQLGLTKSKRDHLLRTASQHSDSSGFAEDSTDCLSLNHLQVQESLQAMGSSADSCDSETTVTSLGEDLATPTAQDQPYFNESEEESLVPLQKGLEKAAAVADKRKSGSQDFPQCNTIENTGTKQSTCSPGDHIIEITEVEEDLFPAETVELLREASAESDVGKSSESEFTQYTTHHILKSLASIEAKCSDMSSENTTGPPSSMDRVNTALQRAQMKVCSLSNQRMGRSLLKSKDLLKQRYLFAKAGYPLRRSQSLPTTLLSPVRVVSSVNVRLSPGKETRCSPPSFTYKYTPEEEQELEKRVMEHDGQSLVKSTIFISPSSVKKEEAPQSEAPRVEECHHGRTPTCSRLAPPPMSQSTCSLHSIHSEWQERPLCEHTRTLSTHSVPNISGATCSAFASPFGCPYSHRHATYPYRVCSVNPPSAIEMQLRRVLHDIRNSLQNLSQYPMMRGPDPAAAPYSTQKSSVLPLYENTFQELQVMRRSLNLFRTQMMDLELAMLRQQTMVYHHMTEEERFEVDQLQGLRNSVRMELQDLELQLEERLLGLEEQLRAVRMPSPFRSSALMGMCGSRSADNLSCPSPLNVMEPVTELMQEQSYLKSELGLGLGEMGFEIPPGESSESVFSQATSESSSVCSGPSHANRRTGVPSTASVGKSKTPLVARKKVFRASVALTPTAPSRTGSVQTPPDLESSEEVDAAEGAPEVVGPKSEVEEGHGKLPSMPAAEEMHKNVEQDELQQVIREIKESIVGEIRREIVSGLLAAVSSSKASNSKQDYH
UniProt Q9UK76: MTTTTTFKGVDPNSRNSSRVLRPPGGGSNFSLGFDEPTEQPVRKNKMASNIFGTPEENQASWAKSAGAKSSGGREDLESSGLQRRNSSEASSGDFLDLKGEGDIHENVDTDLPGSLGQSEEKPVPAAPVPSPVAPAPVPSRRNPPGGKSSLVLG
UniProt Q86U28: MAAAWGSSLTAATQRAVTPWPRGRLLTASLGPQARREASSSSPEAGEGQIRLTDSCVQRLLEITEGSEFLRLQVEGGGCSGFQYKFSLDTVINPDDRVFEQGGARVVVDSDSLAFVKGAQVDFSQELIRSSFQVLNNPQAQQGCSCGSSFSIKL
UniProt P08514, whole entry, looked up: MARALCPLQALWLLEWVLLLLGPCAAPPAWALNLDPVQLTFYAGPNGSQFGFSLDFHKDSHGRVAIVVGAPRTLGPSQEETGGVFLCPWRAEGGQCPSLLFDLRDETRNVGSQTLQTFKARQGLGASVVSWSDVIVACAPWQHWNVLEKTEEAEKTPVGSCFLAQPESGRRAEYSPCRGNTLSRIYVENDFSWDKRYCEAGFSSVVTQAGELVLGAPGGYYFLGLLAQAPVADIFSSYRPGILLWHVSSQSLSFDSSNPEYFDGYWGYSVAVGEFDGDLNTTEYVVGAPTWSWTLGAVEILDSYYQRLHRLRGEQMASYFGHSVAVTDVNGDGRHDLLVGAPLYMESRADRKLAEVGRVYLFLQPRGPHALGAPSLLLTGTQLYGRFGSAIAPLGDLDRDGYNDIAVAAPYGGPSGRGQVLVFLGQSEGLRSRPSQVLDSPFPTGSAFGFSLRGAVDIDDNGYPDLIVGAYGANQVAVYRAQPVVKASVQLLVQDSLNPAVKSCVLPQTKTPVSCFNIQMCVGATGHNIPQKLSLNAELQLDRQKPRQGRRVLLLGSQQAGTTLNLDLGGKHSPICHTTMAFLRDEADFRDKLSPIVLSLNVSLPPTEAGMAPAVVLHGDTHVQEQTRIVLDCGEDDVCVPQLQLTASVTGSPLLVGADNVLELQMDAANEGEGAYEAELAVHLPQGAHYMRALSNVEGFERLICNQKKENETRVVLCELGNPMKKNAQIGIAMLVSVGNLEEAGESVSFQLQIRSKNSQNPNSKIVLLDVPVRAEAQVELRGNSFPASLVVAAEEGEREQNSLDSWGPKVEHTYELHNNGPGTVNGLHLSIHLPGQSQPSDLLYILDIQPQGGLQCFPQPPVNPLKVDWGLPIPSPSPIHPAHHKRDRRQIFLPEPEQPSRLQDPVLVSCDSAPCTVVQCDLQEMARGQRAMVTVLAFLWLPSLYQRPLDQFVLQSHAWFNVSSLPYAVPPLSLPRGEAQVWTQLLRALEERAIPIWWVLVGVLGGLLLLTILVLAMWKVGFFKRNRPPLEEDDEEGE
UniProt Q9H3F6: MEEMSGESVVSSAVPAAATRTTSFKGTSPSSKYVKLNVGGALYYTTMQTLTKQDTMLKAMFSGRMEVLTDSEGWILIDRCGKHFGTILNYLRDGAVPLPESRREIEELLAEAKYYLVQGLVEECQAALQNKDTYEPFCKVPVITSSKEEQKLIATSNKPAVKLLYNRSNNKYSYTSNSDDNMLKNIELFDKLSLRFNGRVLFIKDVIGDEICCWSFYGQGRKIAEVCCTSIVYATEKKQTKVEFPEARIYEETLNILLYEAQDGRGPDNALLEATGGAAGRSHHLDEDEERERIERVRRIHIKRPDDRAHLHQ
UniProt Q14643, whole entry, looked up: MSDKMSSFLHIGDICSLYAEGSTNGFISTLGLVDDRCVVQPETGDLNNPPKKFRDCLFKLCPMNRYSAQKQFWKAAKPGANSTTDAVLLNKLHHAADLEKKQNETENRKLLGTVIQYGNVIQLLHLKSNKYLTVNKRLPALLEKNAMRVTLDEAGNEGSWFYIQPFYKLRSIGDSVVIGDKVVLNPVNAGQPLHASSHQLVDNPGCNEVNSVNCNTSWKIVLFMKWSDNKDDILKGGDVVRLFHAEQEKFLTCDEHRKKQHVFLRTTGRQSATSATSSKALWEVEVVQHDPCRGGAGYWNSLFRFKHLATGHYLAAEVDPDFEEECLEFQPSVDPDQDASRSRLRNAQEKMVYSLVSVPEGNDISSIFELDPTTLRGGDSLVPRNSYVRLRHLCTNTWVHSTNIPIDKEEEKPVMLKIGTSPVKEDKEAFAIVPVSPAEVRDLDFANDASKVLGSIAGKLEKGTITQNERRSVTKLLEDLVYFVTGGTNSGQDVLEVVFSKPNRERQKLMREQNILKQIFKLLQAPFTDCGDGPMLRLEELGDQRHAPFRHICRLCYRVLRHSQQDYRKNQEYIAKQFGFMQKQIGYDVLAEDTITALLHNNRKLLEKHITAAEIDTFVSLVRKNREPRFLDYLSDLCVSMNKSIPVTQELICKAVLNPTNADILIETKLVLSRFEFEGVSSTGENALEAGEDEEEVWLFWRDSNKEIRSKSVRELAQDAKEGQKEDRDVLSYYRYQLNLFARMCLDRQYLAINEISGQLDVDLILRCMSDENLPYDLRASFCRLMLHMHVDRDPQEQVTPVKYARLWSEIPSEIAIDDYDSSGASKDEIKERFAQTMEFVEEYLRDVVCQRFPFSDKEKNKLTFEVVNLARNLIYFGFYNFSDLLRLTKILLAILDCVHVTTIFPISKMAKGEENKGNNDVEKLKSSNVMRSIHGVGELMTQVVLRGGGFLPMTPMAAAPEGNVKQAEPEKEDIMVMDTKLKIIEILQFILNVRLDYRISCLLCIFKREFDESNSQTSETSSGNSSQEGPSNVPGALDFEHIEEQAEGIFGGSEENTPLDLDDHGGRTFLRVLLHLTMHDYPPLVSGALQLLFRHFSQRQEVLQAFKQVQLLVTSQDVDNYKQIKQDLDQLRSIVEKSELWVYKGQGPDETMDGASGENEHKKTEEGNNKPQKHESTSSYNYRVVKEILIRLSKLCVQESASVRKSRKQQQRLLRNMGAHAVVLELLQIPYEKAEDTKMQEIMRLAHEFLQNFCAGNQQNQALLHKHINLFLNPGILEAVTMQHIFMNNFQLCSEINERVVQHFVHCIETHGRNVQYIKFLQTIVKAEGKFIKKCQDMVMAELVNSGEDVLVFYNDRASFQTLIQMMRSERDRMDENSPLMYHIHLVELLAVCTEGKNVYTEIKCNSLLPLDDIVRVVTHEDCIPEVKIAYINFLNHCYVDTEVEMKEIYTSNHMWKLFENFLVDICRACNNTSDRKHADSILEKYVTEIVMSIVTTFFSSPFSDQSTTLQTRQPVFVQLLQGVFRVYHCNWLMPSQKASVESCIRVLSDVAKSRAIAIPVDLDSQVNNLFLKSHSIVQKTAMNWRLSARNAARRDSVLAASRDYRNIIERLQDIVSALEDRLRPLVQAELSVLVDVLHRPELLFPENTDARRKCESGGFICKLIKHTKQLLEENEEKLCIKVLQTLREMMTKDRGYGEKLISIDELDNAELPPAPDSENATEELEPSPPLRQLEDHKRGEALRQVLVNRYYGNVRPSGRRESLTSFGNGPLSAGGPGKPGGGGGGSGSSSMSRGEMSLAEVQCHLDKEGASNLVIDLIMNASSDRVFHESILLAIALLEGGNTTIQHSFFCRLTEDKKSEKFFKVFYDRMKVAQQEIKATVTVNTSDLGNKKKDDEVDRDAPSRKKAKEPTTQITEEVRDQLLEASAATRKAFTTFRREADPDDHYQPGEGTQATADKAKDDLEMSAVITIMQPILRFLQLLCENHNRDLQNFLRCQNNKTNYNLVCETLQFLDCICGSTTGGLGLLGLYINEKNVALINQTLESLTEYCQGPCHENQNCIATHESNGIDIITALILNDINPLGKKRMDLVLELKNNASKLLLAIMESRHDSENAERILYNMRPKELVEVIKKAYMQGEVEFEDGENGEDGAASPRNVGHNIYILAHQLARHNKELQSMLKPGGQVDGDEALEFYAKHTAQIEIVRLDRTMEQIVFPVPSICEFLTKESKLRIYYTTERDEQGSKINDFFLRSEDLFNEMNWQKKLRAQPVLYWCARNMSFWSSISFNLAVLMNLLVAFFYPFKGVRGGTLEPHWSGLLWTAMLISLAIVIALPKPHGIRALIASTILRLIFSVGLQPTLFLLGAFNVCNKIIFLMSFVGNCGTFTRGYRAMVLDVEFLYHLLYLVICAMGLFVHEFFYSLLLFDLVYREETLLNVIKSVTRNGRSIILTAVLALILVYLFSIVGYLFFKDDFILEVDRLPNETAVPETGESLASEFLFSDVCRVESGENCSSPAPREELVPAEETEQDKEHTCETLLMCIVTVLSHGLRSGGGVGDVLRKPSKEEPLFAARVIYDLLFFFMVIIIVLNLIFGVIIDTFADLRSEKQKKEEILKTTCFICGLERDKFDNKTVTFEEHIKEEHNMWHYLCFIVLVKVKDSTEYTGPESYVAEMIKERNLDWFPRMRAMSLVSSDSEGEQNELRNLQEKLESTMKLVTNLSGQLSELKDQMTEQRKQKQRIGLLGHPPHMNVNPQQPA

Compound: Cc1ccc(NC(=O)c2ccc(CN3CC[C@H](N(C)C)C3)c(C(F)(F)F)c2)cc1Nc1nccc(-c2cncnc2)n1 [bafetinib]
Experiment: log2 fold change, soluble protein after heating vs DMSO (PISA); higher = thermal stabilisation; K562 lysate, 10 uM; active = over 0.2 and 3.5 SD of the protein, either way, in both replicates (recomputed)
Method in brief: (§1)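 Thermal stability, expressed as log-two fold change relative to solvent controls, is given from duplicates. Crude K562 extract in PBS pH 7.4 with 1 mM MgCl2, at 1 mg/mL protein, was treated with 10 μM compound for 30 min and heated in aliquots for 3 min across 48°C-58°C. After pooling, adjustment to 0.5% NP-40 at 4°C and centrifugation at 21,000xg for 90 min, supernatant protein was measured by TMTpro 16plex LC-MS/MS with channel sums equalised.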

Target	log2 fold change
KCNK1 (UniProt O00180)	inactive: 0.006
ITCH (UniProt Q96J02)	inactive: -0.022
ITGAE (UniProt P38570)	inactive: -0.215
ITPRID2 (UniProt P28290)	inactive: -0.044
JMJD7 (UniProt P0C870)	inactive: -0.055
KDF1 (UniProt Q8NAX2)	inactive: -0.001
ISCA1 isoform 2 (UniProt Q9BUE6)	inactive: 0.067

Compound: Cc1cccc(CC(=O)N2CCc3c2ccc(-c2cn(C)c4ncnc(N)c24)c3F)n1
Experiment: as above
Method in brief: as §1

Target	log2 fold change
KDM1A (UniProt O60341)	inactive: 0.025
IPO8 (UniProt O15397)	inactive: 0.017
ITGB1 (UniProt P05556)	inactive: 0.006
KCNK5 (UniProt O95279)	inactive: 0.091
JUND (UniProt P17535)	inactive: 0.073
ITIH2 (UniProt P19823)	inactive: -0.075
JPT1 (UniProt Q9UK76)	inactive: 0.022
KCNN4 (UniProt O15554)	inactive: -0.261
IQUB (UniProt Q8NA54)	inactive: 0.031
KATNBL1 (UniProt Q9H079)	inactive: 0.01
KAT2A (UniProt Q92830)	inactive: -0.053
ISCA2 (UniProt Q86U28)	inactive: 0.022
ITGB1BP1 (UniProt O14713)	inactive: -0.028
IQGAP3 (UniProt Q86VI3)	inactive: 0.059
ITGA2B (UniProt P08514)	inactive: 0.052
IQGAP1 (UniProt P46940)	inactive: 0.025
JAK3 (UniProt P52333)	active: -0.612
KCTD10 (UniProt Q9H3F6)	inactive: -0.102
ITPR1 (UniProt Q14643)	inactive: 0.022
KAZN (UniProt Q674X7)	inactive: 0.011
ITM2A (UniProt O43736)	inactive: -0.016
KDELR3 (UniProt O43731)	inactive: 0.004
IRS2 (UniProt Q9Y4H2)	inactive: 0.307
KCTD2 (UniProt Q14681)	inactive: -0.067
KCNK1 (UniProt O00180)	inactive: 0.017
ITCH (UniProt Q96J02)	inactive: 0.034
ITGAE (UniProt P38570)	inactive: 0.282
ITPRID2 (UniProt P28290)	inactive: 0.009
JMJD7 (UniProt P0C870)	inactive: 0.116
ISCA1 isoform 2 (UniProt Q9BUE6)	inactive: -0.223
